Assay results taken from PubChem BioAssay (NCATS).
The shares of active, inactive and inconclusive entries below differ from those in the screen. For part of these data: Where the call is inconclusive, the potency comes from a doubtful curve fit. Calls of active or inactive are those of the source. Calls come from the whole dose curve; as a rule, active = well fitted curve in the direction sought with a large enough effect; inconclusive = small, poorly fitted or top-dose-only effect, or another doubt; inactive = no such curve, though single readings can be large; an effect the other way counts as inactive or inconclusive.

Experiments:
[1] = Quantitative High-Throughput drug screen in 47 multiple myeloma cell lines against the NCATS MIPE library collection: KMS20_JCRB cell viability assay (AID 1918973); conditions: CellTiter-Glo ATP, 48 h; viability (% of DMSO): at 45.8 µM (top of the series); note: nearly all actives have a fitted effect of over 45% in size; note: potency is the fitted concentration of half-maximal effect
Method in brief: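 We plated 500 myeloma cells per well, pinned in MIPE 4.0 compounds, and incubated for 48 hours at 37C. ATP was then quantified with CellTiter-Glo, with DMSO and media-only wells defining 100% and 0%.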

[2] = Quantitative High-Throughput drug screen in 47 multiple myeloma cell lines against the NCATS MIPE library collection: KMS26_JCRB cell viability assay (AID 1918975); conditions: KMS26 myeloma cells viability, CellTiter-Glo ATP, 48 h; viability (% of DMSO): at 45.8 µM (top of the series); note: nearly all actives have a fitted effect of over 45% in size; note: potency is the fitted concentration of half-maximal effect
Method in brief: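 Myeloma cell lines, 500 cells per well, exposed to MIPE 4.0 library compounds for 48 h at 37C, 5% CO2. Viability from ATP by CellTiter-Glo luminescence; normalised to DMSO (100%) and media-only (0%) wells.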

[3] = Quantitative High-Throughput drug screen in 47 multiple myeloma cell lines against the NCATS MIPE library collection: MMM1_PLB cell viability assay (AID 1918976); conditions: MMM1 myeloma cells viability, CellTiter-Glo, 48 h; series mostly up to 45.8 µM; note: potency is the fitted concentration of half-maximal effect; nearly all actives have a fitted effect of over 35% in size
Method in brief: (§1)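 500 cells/well; MIPE 4.0 drugs pin-transferred; 48 h, 37C, 5% CO2. CellTiter-Glo, 5 min RT, luminescence. Controls: DMSO 100%, media 0%.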

[4] = Quantitative High-Throughput drug screen in 47 multiple myeloma cell lines against the NCATS MIPE library collection: MOLP8_DSMZ cell viability assay (AID 1918977); conditions: MOLP8 myeloma viability, CellTiter-Glo ATP luminescence, 48 h; viability (% of control): at 45.8 µM (top of the series); note: nearly all actives have a fitted effect of over 45% in size; note: potency is the fitted concentration of half-maximal effect
Method in brief: as §1

[5] = Quantitative High-Throughput drug screen in 47 multiple myeloma cell lines against the NCATS MIPE library collection: NCIH929_DSMZ cell viability assay (AID 1918978); conditions: NCI-H929 myeloma viability, CellTiter-Glo ATP, 48 h; series mostly up to 45.8 µM; note: nearly all actives have a fitted effect of over 35% in size; note: potency is the fitted concentration of half-maximal effect
Method in brief: as §1

[6] = Quantitative High-Throughput drug screen in 47 multiple myeloma cell lines against the NCATS MIPE library collection: OCIMY1_PLB cell viability assay (AID 1918979); conditions: OCI-MY1 myeloma viability, CellTiter-Glo ATP, 48 h; viability: at 45.8 µM (top of the series) unless noted; note: potency is the fitted concentration of half-maximal effect; nearly all actives have a fitted effect of over 35% in size
Method in brief: as §1

[7] = Quantitative High-Throughput drug screen in 47 multiple myeloma cell lines against the NCATS MIPE library collection: MM1S_ATCC cell viability assay (AID 1918980); conditions: MM1S myeloma viability, CellTiter-Glo ATP luminescence, 48 h; series mostly up to 45.8 µM; note: nearly all actives have a fitted effect of over 45% in size; note: potency is the fitted concentration of half-maximal effect
Method in brief: as §1

[8] = Quantitative High-Throughput drug screen in 47 multiple myeloma cell lines against the NCATS MIPE library collection: LP1_DSMZ cell viability assay (AID 1918982); conditions: LP1 myeloma viability, CellTiter-Glo ATP luminescence, 48 h; viability (% of control): at 45.8 µM (top of the series); note: nearly all actives have a fitted effect of over 35% in size; note: potency is the fitted concentration of half-maximal effect
Method in brief: as §1

[9] = Quantitative High-Throughput drug screen in 47 multiple myeloma cell lines against the NCATS MIPE library collection: KMS28PE_JCRB cell viability assay (AID 1918983); conditions: KMS28PE multiple myeloma viability, CellTiter-Glo ATP, 48 h; series mostly up to 45.8 µM; note: nearly all actives have a fitted effect of over 35% in size; note: potency is the fitted concentration of half-maximal effect
Method in brief: as §1

[10] = Quantitative High-Throughput drug screen in 47 multiple myeloma cell lines against the NCATS MIPE library collection: L363_DSMZ cell viability assay (AID 1918984); conditions: L363 myeloma viability, CellTiter-Glo ATP luminescence, 48 h; viability (% of control): at 45.8 µM (top of the series); note: nearly all actives have a fitted effect of over 40% in size; note: potency is the fitted concentration of half-maximal effect
Method in brief: as §1

[11] = Quantitative High-Throughput drug screen in 47 multiple myeloma cell lines against the NCATS MIPE library collection: KMS34_JCRB cell viability assay (AID 1918985); conditions: KMS34 myeloma viability, CellTiter-Glo ATP luminescence, 48 h; viability, percent of control: at 45.8 µM (top of the series); note: nearly all actives have a fitted effect of over 40% in size; note: potency is the fitted concentration of half-maximal effect
Method in brief: as §1

[12] = Quantitative High-Throughput drug screen in 47 multiple myeloma cell lines against the NCATS MIPE library collection: OCIMY7_PLB cell viability assay (AID 1918987); conditions: OCI-MY7 myeloma viability, CellTiter-Glo ATP, 48 h; viability (% of DMSO): at 45.8 µM (top of the series); note: potency is the fitted concentration of half-maximal effect; nearly all actives have a fitted effect of over 65% in size
Method in brief: as §1

[13] = Quantitative High-Throughput drug screen in 47 multiple myeloma cell lines against the NCATS MIPE library collection: OCIMY5_PLB cell viability assay (AID 1918988); conditions: OCI-MY5 myeloma viability, ATP luminescence, 48 h; viability, % of control: at 45.8 µM (top of the series); note: nearly all actives have a fitted effect of over 65% in size; note: potency is the fitted concentration of half-maximal effect;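 for viability, % of control: 100% = DMSO-treated wells and 0% = wells with media alone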
Method in brief: as §1

[14] = Quantitative High-Throughput drug screen in 47 multiple myeloma cell lines against the NCATS MIPE library collection: SKMM1_PLB cell viability assay (AID 1919863); conditions: SKMM1 myeloma viability, CellTiter-Glo ATP, 48 h; viability: active compounds read low; note: nearly all actives have a fitted effect of over 35% in size; note: potency is the fitted concentration of half-maximal effect
Method in brief: as §1

[15] = Quantitative High-Throughput drug screen in 47 multiple myeloma cell lines against the NCATS MIPE library collection: U266_ATCC cell viability assay (AID 1919864); conditions: U266 myeloma viability, CellTiter-Glo ATP luminescence, 48 h; viability (% of DMSO control): at 45.8 µM (top of the series); note: nearly all actives have a fitted effect of over 35% in size; note: potency is the fitted concentration of half-maximal effect
Method in brief: as §1

[16] = Quantitative High-Throughput drug screen in 47 multiple myeloma cell lines against the NCATS MIPE library collection: XG1_PLB cell viability assay (AID 1919866); conditions: CellTiter-Glo ATP, 48 h; viability: at 45.8 µM (top of the series); note: nearly all actives have a fitted effect of over 35% in size; note: potency is the fitted concentration of half-maximal effect
Method in brief: as §1

[17] = Quantitative High-Throughput drug screen in 47 multiple myeloma cell lines against the NCATS MIPE library collection: OPM1_PLB cell viability assay (AID 1918989); conditions: CellTiter-Glo, 48 h; series mostly up to 45.8 µM; note: potency is the fitted concentration of half-maximal effect; nearly all actives have a fitted effect of over 40% in size
Method in brief: as §1

[18] = Quantitative High-Throughput drug screen in 47 multiple myeloma cell lines against the NCATS MIPE library collection: XG6_PLB cell viability assay (AID 1919865); conditions: XG6 myeloma viability, CellTiter-Glo ATP luminescence, 48 h; viability (% of control): at 45.8 µM (top of the series); note: nearly all actives have a fitted effect of over 40% in size; note: potency is the fitted concentration of half-maximal effect
Method in brief: as §1

[19] = Quantitative High-Throughput drug screen in 47 multiple myeloma cell lines against the NCATS MIPE library collection: MM1R_ATCC cell viability assay (AID 1918981); conditions: MM1R multiple myeloma cells, CellTiter-Glo viability, 48 h; series mostly up to 45.8 µM; note: nearly all actives have a fitted effect of over 35% in size
Method in brief: as §1

CC(=O)OCCN1C(=O)c2c(C)nc3ccc(S(=O)(=O)N4CCOCC4)cc3c2C1=O
inactive: Potency [4] | Potency [5] | Potency [8] | Potency [9] | Potency [10] | Potency [11] | Potency [13] | Potency [16]
inconclusive: Potency [1] 1 nM | Potency [2] 1.9 nM [rising, full curve, poor fit] | Potency [3] 4.2 nM [rising, full curve, poor fit] | Potency [6] 1.3 nM [rising, full curve, poor fit] | Potency [7] 132 nM [rising, full curve, poor fit] | Potency [12] 37200 nM [cytotoxic, partial curve, poor fit] | Potency [14] 37.2 nM [rising, full curve, poor fit] | Potency [15] 46.9 nM [rising, full curve, poor fit]

Clc1ccc2c(N3CCN(CCCN4CCN(c5ccnc6cc(Cl)ccc56)CC4)CC3)ccnc2c1
inconclusive: Potency [2] 2 nM [cytotoxic, full curve, poor fit] | Potency [3] 1.1 nM | Potency [4] 1.8 nM [cytotoxic, full curve, poor fit] | Potency [7] 5.1 nM [rising, full curve, poor fit] | Potency [12] 0.9 nM [rising, full curve, poor fit] | Potency [17] 115 nM [rising, full curve, poor fit] | Potency [15] 0.5 nM [rising, full curve, poor fit]
inactive: Potency [1] | Potency [5] | Potency [10] | Potency [11] | viability [14] 129% | Potency [16]

CCNC(=O)[C@H]1O[C@@H](n2cnc3c(N)nc(NCCc4ccc(CCC(=O)O)cc4)nc32)[C@H](O)[C@H]1O
inconclusive: Potency [1] 59 nM [cytotoxic, full curve, poor fit] | Potency [2] 10500 nM [cytotoxic, partial curve, poor fit] | Potency [3] 3320 nM [cytotoxic, full curve, poor fit] | Potency [4] 8330 nM [cytotoxic, partial curve, poor fit] | Potency [8] 37200 nM [cytotoxic, single point] | Potency [9] 2350 nM [cytotoxic, partial curve, poor fit] | Potency [10] 37200 nM [cytotoxic, single point] | Potency [11] 29600 nM [cytotoxic, single point] | Potency [12] 33200 nM [cytotoxic, single point] | Potency [14] 1480 nM [cytotoxic, full curve, poor fit] | Potency [18] 83.3 nM [cytotoxic, full curve]

C[C@@H]1CC=CC=CC=CC=C[C@@H](O[C@@H]2O[C@H](C)[C@@H](O)[C@H](N)[C@H]2O)C[C@@H]2O[C@](O)(C[C@@H](O)C[C@@H]3O[C@@H]3C=CC(=O)O1)C[C@H](O)[C@@H]2C(=O)O
inactive: Potency [2]
active: Potency [3] 23500 nM | Potency [6] 9350 nM | Potency [11] 18700 nM
inconclusive: Potency [1] 11800 nM [cytotoxic, full curve] | Potency [4] 10500 nM [cytotoxic, partial curve] | Potency [8] 5900 nM [cytotoxic, full curve] | Potency [10] 1 nM [cytotoxic] | Potency [14] 14800 nM [cytotoxic, partial curve, poor fit] | Potency [15] 23500 nM [cytotoxic, single point] | Potency [18] 14800 nM [cytotoxic, partial curve]

CNC(=O)c1ccc(N2C(=S)N(c3ccc(C#N)c(C(F)(F)F)c3)C(=O)C2(C)C)cc1F
active: Potency [7] 18700 nM
inconclusive: viability (% of DMSO) [1] 81.2% [cytotoxic] | Potency [3] 33200 nM [cytotoxic, single point] | Potency [12] 13.2 nM [rising, full curve, poor fit] | Potency [14] 66.2 nM [rising, full curve, poor fit] | Potency [15] 26.4 nM [rising, full curve, poor fit] | Potency [18] 26400 nM [cytotoxic, partial curve]
inactive: Potency [2] | Potency [4] | Potency [8] | Potency [9] | Potency [10] | Potency [13]

C[C@H]1O[C@H](O[C@H]2[C@H](O)[C@@H](O)[C@@H](O[C@H]3[C@H](O)[C@@H](O)C(O)O[C@H]3CO)O[C@H]2CO)[C@H](O)[C@@H](O)[C@H]1N[C@H]1C=C(CO)[C@@H](O)[C@H](O)[C@@H]1O (stereo not given in full)
inactive: Potency [2] | Potency [4] | Potency [7] | Potency [19] | Potency [9] | viability [14] 131%
inconclusive: Potency [1] 1.2 nM [rising, full curve, poor fit] | Potency [3] 93.5 nM [rising, full curve] | Potency [5] 1.7 nM [rising, full curve, poor fit] | Potency [12] 1 nM | Potency [13] 3 nM [rising, full curve, poor fit] | Potency [15] 33.2 nM [rising, full curve]

C[C@@H](NCc1cc2ccccc2[nH]1)c1cccc2ccccc12
inactive: Potency [1] | Potency [4] | Potency [13] | viability [14] 132% | Potency [15] | Potency [18]
inconclusive: Potency [2] 5.9 nM [rising, full curve, poor fit] | Potency [3] 33.2 nM [rising, full curve, poor fit] | Potency [6] 526 nM [rising, partial curve, poor fit] | Potency [7] 9.3 nM [rising, full curve, poor fit] | Potency [10] 20.9 nM [rising, full curve, poor fit] | Potency [11] 1.3 nM [rising, full curve, poor fit] | Potency [12] 16600 nM [cytotoxic, partial curve, poor fit] | Potency [16] 8330 nM [cytotoxic, partial curve, poor fit]
